# Measured values as given in publication PMC2432030.
# Protein sequences, listed by entry. Tags and fused reporters are not part of them. Lines headed by an entry give the natural chain unless they say otherwise; changes in a name come on top.
# UniProt Q8BTM8: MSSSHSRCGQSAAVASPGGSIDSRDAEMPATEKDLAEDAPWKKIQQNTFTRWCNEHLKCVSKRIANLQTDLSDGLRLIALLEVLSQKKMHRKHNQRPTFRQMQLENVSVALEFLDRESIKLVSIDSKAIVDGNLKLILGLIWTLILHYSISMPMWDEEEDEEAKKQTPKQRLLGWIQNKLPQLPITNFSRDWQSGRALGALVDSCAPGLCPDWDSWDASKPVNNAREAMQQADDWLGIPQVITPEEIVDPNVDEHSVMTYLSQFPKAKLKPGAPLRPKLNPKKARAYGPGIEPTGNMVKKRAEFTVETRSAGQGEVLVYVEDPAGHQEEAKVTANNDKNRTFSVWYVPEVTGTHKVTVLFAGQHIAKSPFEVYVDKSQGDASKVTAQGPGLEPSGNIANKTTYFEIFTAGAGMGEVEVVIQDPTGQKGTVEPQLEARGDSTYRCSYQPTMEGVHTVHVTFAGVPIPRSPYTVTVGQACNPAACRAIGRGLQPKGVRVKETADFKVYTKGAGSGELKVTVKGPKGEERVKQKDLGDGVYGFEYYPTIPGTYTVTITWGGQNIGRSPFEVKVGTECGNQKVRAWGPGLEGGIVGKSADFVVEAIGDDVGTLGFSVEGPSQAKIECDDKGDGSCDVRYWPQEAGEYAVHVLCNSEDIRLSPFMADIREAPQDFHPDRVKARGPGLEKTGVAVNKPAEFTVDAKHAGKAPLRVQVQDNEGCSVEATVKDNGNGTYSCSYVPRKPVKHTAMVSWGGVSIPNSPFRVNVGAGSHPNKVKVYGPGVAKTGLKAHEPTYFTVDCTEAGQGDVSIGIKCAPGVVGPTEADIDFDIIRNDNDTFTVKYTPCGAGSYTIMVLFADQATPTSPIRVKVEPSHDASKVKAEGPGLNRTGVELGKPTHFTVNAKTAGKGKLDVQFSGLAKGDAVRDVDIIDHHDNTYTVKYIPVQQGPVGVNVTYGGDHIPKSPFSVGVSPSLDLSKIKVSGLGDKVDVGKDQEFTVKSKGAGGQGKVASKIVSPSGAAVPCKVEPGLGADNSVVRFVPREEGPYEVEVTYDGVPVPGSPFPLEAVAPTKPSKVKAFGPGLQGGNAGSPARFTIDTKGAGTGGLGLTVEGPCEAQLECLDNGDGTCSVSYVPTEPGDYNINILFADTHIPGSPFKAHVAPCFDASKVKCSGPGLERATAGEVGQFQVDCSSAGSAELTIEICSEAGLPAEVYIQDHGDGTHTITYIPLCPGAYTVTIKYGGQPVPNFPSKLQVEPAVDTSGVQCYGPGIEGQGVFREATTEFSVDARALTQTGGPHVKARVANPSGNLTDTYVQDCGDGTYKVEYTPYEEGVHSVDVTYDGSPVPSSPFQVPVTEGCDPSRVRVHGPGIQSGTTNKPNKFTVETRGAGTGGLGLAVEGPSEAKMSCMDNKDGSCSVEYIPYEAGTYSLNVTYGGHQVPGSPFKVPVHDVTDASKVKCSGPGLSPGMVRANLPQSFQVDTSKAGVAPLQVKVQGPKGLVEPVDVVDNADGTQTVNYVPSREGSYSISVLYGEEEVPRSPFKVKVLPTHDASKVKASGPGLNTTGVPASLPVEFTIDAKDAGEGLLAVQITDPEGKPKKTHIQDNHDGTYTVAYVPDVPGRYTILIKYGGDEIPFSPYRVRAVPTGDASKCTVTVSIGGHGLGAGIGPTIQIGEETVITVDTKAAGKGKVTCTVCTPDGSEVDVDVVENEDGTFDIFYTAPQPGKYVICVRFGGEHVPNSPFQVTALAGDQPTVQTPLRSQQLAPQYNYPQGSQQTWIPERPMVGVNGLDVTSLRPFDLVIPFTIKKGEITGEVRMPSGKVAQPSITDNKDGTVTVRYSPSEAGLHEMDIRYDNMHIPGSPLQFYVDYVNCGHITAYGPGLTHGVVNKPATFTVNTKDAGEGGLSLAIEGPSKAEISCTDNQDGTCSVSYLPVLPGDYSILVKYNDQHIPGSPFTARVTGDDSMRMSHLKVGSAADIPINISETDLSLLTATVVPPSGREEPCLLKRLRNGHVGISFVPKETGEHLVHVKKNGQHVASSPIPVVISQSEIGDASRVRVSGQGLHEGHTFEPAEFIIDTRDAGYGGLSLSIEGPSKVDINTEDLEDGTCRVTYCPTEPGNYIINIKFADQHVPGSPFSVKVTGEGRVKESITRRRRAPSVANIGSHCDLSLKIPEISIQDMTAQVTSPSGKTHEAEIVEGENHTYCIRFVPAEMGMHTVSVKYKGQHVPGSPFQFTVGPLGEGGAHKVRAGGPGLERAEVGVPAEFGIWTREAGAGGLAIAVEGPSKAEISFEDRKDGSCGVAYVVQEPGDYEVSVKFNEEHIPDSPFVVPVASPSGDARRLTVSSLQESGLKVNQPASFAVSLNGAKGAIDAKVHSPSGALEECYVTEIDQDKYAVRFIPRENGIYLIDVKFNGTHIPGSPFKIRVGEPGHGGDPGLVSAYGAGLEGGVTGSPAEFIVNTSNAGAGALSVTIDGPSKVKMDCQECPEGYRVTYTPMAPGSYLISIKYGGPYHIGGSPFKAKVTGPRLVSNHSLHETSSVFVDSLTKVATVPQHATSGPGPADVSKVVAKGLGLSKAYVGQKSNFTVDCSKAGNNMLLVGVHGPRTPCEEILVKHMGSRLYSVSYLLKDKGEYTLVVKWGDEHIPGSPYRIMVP
# UniProt Q9JIS7: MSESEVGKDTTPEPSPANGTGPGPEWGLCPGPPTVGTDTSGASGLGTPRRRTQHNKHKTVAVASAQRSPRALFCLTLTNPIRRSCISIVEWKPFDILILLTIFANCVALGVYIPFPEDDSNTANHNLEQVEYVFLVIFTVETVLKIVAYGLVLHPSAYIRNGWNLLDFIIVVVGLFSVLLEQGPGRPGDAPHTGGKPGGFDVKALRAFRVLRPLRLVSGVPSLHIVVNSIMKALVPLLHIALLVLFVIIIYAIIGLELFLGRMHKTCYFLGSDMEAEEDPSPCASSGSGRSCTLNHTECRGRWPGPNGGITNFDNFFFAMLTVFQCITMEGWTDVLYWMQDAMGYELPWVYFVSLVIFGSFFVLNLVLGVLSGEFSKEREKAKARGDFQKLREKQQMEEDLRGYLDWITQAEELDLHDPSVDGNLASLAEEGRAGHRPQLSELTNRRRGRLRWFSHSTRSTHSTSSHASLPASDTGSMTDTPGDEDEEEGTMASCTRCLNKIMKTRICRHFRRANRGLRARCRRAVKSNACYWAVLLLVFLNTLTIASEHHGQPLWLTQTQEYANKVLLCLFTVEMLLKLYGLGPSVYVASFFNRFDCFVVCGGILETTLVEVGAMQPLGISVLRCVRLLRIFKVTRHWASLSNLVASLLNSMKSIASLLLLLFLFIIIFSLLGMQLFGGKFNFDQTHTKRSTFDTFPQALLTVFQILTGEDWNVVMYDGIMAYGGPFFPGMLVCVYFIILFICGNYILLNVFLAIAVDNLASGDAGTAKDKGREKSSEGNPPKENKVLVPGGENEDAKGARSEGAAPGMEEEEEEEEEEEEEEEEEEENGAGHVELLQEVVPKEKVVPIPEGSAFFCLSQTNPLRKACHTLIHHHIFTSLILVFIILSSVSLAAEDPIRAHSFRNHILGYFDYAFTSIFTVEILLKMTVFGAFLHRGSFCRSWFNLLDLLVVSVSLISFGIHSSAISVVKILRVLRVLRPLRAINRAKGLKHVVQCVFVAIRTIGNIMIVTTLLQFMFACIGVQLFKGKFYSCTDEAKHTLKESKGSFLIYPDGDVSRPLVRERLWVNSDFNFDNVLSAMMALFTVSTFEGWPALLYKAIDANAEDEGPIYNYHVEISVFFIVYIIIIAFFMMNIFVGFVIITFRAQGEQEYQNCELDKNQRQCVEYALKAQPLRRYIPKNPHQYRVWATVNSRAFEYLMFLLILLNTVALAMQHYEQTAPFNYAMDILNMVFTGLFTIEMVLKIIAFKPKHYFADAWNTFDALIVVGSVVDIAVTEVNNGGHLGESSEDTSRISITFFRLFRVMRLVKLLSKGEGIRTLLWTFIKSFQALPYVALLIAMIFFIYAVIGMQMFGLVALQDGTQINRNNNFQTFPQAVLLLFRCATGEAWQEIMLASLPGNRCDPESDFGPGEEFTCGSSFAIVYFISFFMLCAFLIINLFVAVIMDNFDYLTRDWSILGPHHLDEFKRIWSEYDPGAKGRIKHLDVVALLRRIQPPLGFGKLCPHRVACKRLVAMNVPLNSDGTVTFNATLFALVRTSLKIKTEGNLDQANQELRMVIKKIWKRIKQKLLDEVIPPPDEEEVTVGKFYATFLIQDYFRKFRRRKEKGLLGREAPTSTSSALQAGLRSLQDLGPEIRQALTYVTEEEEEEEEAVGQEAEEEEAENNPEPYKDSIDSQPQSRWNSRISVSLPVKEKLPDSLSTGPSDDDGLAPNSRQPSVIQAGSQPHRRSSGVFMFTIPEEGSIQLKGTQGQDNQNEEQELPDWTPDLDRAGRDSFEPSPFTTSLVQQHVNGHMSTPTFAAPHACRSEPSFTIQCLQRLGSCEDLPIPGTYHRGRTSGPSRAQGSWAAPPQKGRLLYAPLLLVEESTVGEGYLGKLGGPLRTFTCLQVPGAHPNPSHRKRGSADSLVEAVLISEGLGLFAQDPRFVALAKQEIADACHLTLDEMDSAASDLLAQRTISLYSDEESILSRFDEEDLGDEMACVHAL
# Experiments:
# [1] = molecular target: HA-tagged C-terminus of filamin A (mouse) (UniProt Q8BTM8); assay: pull-down; HA-tagged filamin C-termini from tsA-201 lysate (300 mM NaCl, 50 mM Tris pH 7.5, 0.1% Triton X-100) held on sepharose G beads with anti-HA antibody, washed, incubated with 1 ml of GST-Cav1.4^wt or GST-Cav1.4^nob2 cell lysate overnight at 4 °C, washed; blot probed with anti-GST antibody; n = 3; only the target purified
# [2] = molecular target: HA-tagged C-terminus of filamin B (mouse) (UniProt Q80X90); assay: as above
substance,measurement,setting,value
GST-Cav1.4^wt N-terminus (from UniProt Q9JIS7) (domain or fragment),binding,[1],binds
same,binding,[2],binds

# No constants are given. Whether binding was seen depends on the method and setting. Binding seen in cells or lysates may run through a third protein. A result given as binding can be weak or reduced; the word gives no strength.
